## Results of single-concentration screens

The chains behind the UniProt entries cited, without tags or fusion partners. Residues count along the entry.
UniProt Q4DA54, 1-478: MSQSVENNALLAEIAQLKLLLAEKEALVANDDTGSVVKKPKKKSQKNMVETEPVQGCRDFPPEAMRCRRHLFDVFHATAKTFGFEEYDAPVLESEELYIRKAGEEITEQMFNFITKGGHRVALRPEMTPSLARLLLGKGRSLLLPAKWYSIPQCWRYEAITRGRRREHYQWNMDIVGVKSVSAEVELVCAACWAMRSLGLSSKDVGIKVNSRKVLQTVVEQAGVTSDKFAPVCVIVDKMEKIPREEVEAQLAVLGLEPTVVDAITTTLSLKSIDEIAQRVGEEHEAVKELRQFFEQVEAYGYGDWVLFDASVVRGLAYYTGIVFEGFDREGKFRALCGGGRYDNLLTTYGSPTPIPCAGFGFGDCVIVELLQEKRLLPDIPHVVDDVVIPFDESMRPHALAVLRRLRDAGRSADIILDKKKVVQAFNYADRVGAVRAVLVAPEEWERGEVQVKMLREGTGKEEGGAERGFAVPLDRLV
UniProt P9WNZ1, whole entry: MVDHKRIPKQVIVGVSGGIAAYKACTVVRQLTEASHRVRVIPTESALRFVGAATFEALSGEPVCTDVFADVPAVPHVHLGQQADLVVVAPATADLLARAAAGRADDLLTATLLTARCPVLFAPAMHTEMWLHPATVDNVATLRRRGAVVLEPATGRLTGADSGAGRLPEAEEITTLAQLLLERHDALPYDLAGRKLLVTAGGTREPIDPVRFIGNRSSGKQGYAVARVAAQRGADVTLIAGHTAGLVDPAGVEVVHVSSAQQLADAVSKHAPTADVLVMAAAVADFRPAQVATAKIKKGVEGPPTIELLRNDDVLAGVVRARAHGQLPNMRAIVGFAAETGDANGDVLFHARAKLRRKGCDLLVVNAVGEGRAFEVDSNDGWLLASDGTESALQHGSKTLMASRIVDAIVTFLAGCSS

From ChEMBL document CHEMBL3988442, “University of Dundee, Small-Polar-MMV Screening Library” (2021).

TcHisRS: 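Histidine-tRNA ligase, Trypanosoma cruzi CL Brener (UniProt Q4DA54). Enzyme assay of histidyl-tRNA synthetase; the read-out is not stated. Compounds at 30 µM. Direction is inferred from retests: higher values go with stronger inhibition. About 69,000 compounds were tested under these conditions; 0.045% (about 31) showed 50% or more at least once.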
CoaBC: 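Enzyme assay of CoaBC with a phosphate dye (Biomol Green) read at 650 nm. Target: Coenzyme A biosynthesis protein CoaBC, Mycobacterium tuberculosis (UniProt P9WNZ1). Tested at 30 µM. Higher reads as stronger inhibition, judged from the few compounds that gave an IC50. Most strong results did not repeat in a second test. Of about 67,000 compounds tested this way, about 40 (0.06%) reached 50% or more in at least one test.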

Values are the deposited “Percent Effect”, in %.
The record does not define 0% and 100%; most values in the screen are far below 50% and negative numbers occur (in some assays of this library far below -100).
This is an unselected part of the compounds tested.
A dash means the value is not listed here; it may have been measured.

- Cc1nc(C2(NCc3ccc(C#N)cc3F)CCCC2)no1 | TcHisRS: 3.896%
- CN(Cc1ccco1)C(=O)[C@@]12CNC[C@@H]1CN(C1CCCC1)C2 | TcHisRS: 10.84%; CoaBC: -0.7426%
- NC(=O)C1CCN(C(=O)CCn2ccc3cc(Br)ccc32)CC1 | TcHisRS: 1.626%; CoaBC: 5.063%
- Cn1cccc1C(=O)N1CC2(CCN(C(=O)c3cccnc3)C2)C1 | TcHisRS: 9.524%; CoaBC: 0%
- O=C(NCC(F)(F)F)NC1CCCc2c1cnn2CCO (centres unmarked) | TcHisRS: 2.075%; CoaBC: 4.464%
- CCN1CCOC(CNCc2ccc(C)s2)C1 (centres unmarked) | TcHisRS: 7%; CoaBC: -4.793%
- Cc1cccn2cc(C[S+]([O-])Cc3noc(C(C)C)n3)nc12 (centres unmarked) | TcHisRS: 6.667%; CoaBC: 8.949%
- Cc1cc(CN2C[C@@H]3CCCO[C@@H]3[C@H](NS(C)(=O)=O)C2)no1 | TcHisRS: -0.9804%; CoaBC: 3.909%
- CCCOc1cccc(C(=O)N2CCCC(n3cncn3)C2)c1 (centres unmarked) | TcHisRS: 4.871%; CoaBC: 6.335%
- O=C(NCc1cnc2n1CCN(c1ncc(F)cn1)CC2)C1CCC1 | TcHisRS: 1.695%; CoaBC: -3.524%
- CCNC(=O)N1CCC2(CC1)CCn1c(-c3ccccc3)cnc12 | TcHisRS: 7.362%
- CNC(=O)C(C)(C)NC(=O)c1cc(OCC2CCC2)cc(C(=O)OC)c1 | TcHisRS: 2.479%; CoaBC: 0.2132%
- CC(C)N(Cc1cccc(Cl)c1)Cc1nc2c(cnn2C)c(=O)[nH]1 | TcHisRS: 4.373%; CoaBC: 2.089%
- CNc1cc(C2CN(Cc3csc(C)n3)CCO2)nc(C)n1 (centres unmarked) | TcHisRS: 5.323%; CoaBC: 11.74%
- Cc1oncc1C(=O)N1CC[C@H]2[C@H]1CCN2S(C)(=O)=O | TcHisRS: 1.105%; CoaBC: -4.208%
- Cc1nc(C2CCCN(C(=O)c3ccc(Cn4cccn4)o3)C2)no1 (centres unmarked) | TcHisRS: 1.527%; CoaBC: 1.205%
- COc1ccccc1CN1CC[C@H]2[C@@H](C1)[C@H](c1ccsc1)CN2C(C)=O | TcHisRS: 0%; CoaBC: -1.807%
- CN(CCC1CCOCC1)C(=O)C1CCC(=O)N(Cc2ccccn2)C1 (centres unmarked) | TcHisRS: -3.614%; CoaBC: -0.495%
- CCc1nnsc1C(=O)N1CCCN(Cc2ccc(F)cc2)CC1 | TcHisRS: 0.8403%; CoaBC: 5.832%
- Cc1cnn(CC2CN(Cc3nnc(C4CC4)n3C)CCO2)c1 (centres unmarked) | TcHisRS: 5.202%; CoaBC: 2.171%
- CC(C)C(NC(=O)c1ccccc1F)C(=O)Nc1cnn(C)c1 (centres unmarked) | TcHisRS: 5.882%; CoaBC: 0.8065%
- O=C(c1cccnc1)N1CCN(c2ccnc3ccsc23)CC1 | TcHisRS: 1.031%; CoaBC: -0.489%
- CCc1ncnc2c1CCN(C(=O)c1cccn1C)CC2 | TcHisRS: 11.22%; CoaBC: 3.09%
- Cc1cc(C)n(CC2CCCCN2C(=O)c2ccc3nncn3c2)n1 (centres unmarked) | TcHisRS: 2.642%; CoaBC: 5.346%
- Cc1ccc(-c2nc(CN3CCC(N4CCNC4=O)CC3)co2)cc1 | TcHisRS: 5.202%; CoaBC: 3.704%
- CCC(C)N(Cc1cccnc1)C(=O)c1ccc(OC)cc1O (centres unmarked) | TcHisRS: -1.031%; CoaBC: -1.179%
- CNS(=O)(=O)c1cccc(C(C)NCc2ccccc2)c1 (centres unmarked) | TcHisRS: -6.952%; CoaBC: -0.207%
- CC(C)N(C)Cc1cnc2n1CCN(Cc1ccsc1)C2 | TcHisRS: 0%; CoaBC: 1.976%
- NC(=O)c1cccc(CN2CCc3c(ncn3C3CC3)C2)c1 | TcHisRS: 2.353%; CoaBC: 1.535%
- Cc1noc([C@]23COC[C@H]2CN(C(=O)Cc2ccsc2)C3)n1 | TcHisRS: 2.21%; CoaBC: 1.98%
- COc1ccc(Cn2c(C3CCNCC3)cc3cccnc32)cc1 | TcHisRS: 3.03%; CoaBC: -3.699%
- Cc1ncc(CN2CCCC2)c2cc(C(=O)c3ccc(Br)cc3)oc12 | TcHisRS: 20%; CoaBC: 6.053%
- c1cnc(OCc2nnc3n2CCN(Cc2ccco2)C3)nc1 | TcHisRS: 8.046%; CoaBC: 5.123%
- COc1c(C2CCCN2Cc2noc(C(C)C)n2)c(C)nn1C (centres unmarked) | TcHisRS: -3.944%; CoaBC: 2.672%
- Cc1ccc(C)c(OCc2nnc(SCC3CCCN(C)C3)o2)c1 (centres unmarked) | TcHisRS: 10.34%; CoaBC: -39.1%
- N[C@H]1CN(C(=O)CCCc2ccc(F)cc2)C[C@@H]1C1CC1 | TcHisRS: 4%; CoaBC: -33.98%

Repeated from the top, 4 entries:

structure,TcHisRS,CoaBC
Cc1nc(C2(NCc3ccc(C#N)cc3F)CCCC2)no1,3.896,-
CN(Cc1ccco1)C(=O)[C@@]12CNC[C@@H]1CN(C1CCCC1)C2,10.84,-0.7426
NC(=O)C1CCN(C(=O)CCn2ccc3cc(Br)ccc32)CC1,1.626,5.063
Cn1cccc1C(=O)N1CC2(CCN(C(=O)c3cccnc3)C2)C1,9.524,0